# According to patent publication US3984432A, “Color photographic recording material” (priority 1973, dated 1976):
# Assay: Colour reversal processing, Use Example II
# Settings: black-and-white development, then colour development
smiles,measurement,value
CCCCC(CC)COP(=O)(CCCOc1cccc(C(=O)Nc2ccc(C(=O)NC3=NN(c4c(Cl)cc(Cl)cc4Cl)C(=O)C3)cc2)c1)OCC(CC)CCCC (stereo not shown) [(215)],Appearance of colour wedge (reversal),clear magenta wedge corresponding to a colour reversal material
